## Library screening results

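Whole-cell assay for inhibitors of Mycobacterium tuberculosis growth, labelled Cornell in the record; the read-out is not stated. The concentration is filed as 10 mM, unlikely as a test dose, so the dose is not known. The record gives no direction; compounds strong in two other growth screens of this library score well above the rest, so higher reads as stronger inhibition. Size under these conditions: about 53,000 compounds, about 900 of them at 50% or above in at least one test.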

The filed quantity is “Percent Effect” (%).
The controls that fix the scale are not given in the record; negative values are as filed.
Compounds were drawn at random from those tested, without regard to their results.

{"structure": "Cc1cccc(C(=O)Nc2ccc(OC3CCOCC3)c(C)c2)n1", "Percent Effect": 6.348}
{"structure": "[H][C@]12CN(C(=O)c3cnccc3C)C[C@@]1(C(=O)O)CN(c1ncccn1)C2", "Percent Effect": -6.898}
{"structure": "CC(=O)NC1CCCN(C(=O)Nc2nnc(C(C)C)s2)C1", "stereo": "stereo not drawn", "Percent Effect": 4.201}
{"structure": "O=C(O)C(F)(F)F.[H][C@@]12CCN(CC3CCOCC3)C[C@@]1([H])[C@H](C(=O)N1CCCO1)CCO2", "Percent Effect": -3.14}
{"structure": "Cc1c[nH]nc1C1CCN(C(=O)Cn2cccn2)C1", "stereo": "stereo not drawn", "Percent Effect": 13.74}
{"structure": "Cn1cc(CN2CCc3ncn(C)c3C2COCc2cccnc2)cn1", "stereo": "stereo not drawn", "Percent Effect": 17.32}
{"structure": "Cc1cc(C(=O)N2CCC3(CC2)C(=O)N(C)CCN3CC(C)C)c(C)o1.O=C(O)C(F)(F)F", "Percent Effect": 31.27}
{"structure": "COCC(=O)N1CCCC(c2cc(C(F)F)n3ncnc3n2)C1.Cl", "stereo": "stereo not drawn", "Percent Effect": -7.323}
{"structure": "CCN(CC)C(=O)[C@@H]1C[C@H](N)CN1c1noc(-c2ccccc2)n1", "Percent Effect": 28.72}
{"structure": "CCc1ncc(C(=O)N2CCN(c3cnn(C)c(=O)c3)CC2)cn1", "Percent Effect": -55.84}
{"structure": "O=C(NC1CCC1)C1CCC2(CN(C(=O)c3ccco3)C2)O1", "stereo": "stereo not drawn", "Percent Effect": 13.58}
{"structure": "O=C(CCn1ccccc1=O)Nc1ccc(C(=O)O)cc1", "Percent Effect": 4.912}
{"structure": "O=C1CCCCCN1Cc1ncnn1Cc1c(F)cccc1Cl", "Percent Effect": -28.2}
{"structure": "O=C(O)C(F)(F)F.[H][C@]12CCN(C(=O)C3CCOC3)[C@@]1([H])CCC(=O)N2Cc1ccncc1", "stereo": "stereo partly drawn", "Percent Effect": 0.471}
{"structure": "CCCC(=O)NCc1ccc(N2CCCCC2)cc1", "Percent Effect": 9.675}
{"structure": "COc1cc2[nH]c(C(=O)O)cc2c(OC)c1C", "Percent Effect": -6.904}
{"structure": "Cc1cnn(CCNCC(=O)N2CCN(c3ccccc3)CC2)c1", "Percent Effect": -35.39}
{"structure": "COc1nc(N2CCNCC2)ncc1Br", "Percent Effect": 32.97}
{"structure": "CCn1cnnc1CNC(=O)c1cc(Cl)ccc1F", "Percent Effect": -7.59}
{"structure": "COc1ccsc1C(=O)NCCN1CCOCC1", "Percent Effect": 10.37}
{"structure": "COc1cccc2cc(CNCc3ccnc(N4CCCCC4)c3)oc12", "Percent Effect": 60.34}
{"structure": "Cc1ccc(Cl)cc1NC(=O)C1CC(=O)N(Cc2ccccn2)C1", "stereo": "stereo not drawn", "Percent Effect": -38.8}
{"structure": "CSCC[C@H](NC(C)=O)c1nc(Cc2ccccc2)n[nH]1", "Percent Effect": -11.93}
{"structure": "C[C@@H]1CN(C(=O)CCN2CCCC2)CC[C@@]1(O)C1CCC1", "Percent Effect": -4.257}
{"structure": "CN(C)CC(=O)N1CCC2(CCN(Cc3ccccn3)C2=O)C1", "stereo": "stereo not drawn", "Percent Effect": -2.757}
{"structure": "Cc1cc(C(=O)N2CCc3c(CN(C)C(C)C)n[nH]c3C2)[nH]n1", "Percent Effect": 21.29}
{"structure": "CN1CCCN(C(=O)c2cnc(C(C)(C)C)nc2O)CC1", "Percent Effect": 2.591}
{"structure": "Cn1cc(S(=O)(=O)N2CCN(S(=O)(=O)c3ccc(Br)s3)CC2)cn1", "Percent Effect": 7.414}
{"structure": "CN1CCC(N(Cc2ccccc2)C(=O)c2nccn3ccnc23)CC1", "Percent Effect": 14.7}
{"structure": "CN(C)c1cnnc(N2CCN(C(=O)Cc3ccccc3)CC2)c1", "Percent Effect": -3.127}
{"structure": "CCc1c(C(=O)O)nnn1-c1ccc(C)cc1C", "Percent Effect": -0.4071}
{"structure": "Cc1ccc(NC2CCN(C(=O)CCc3nccs3)CC2)nn1", "Percent Effect": -25.8}
{"structure": "[H][C@@]12CCN(C(=O)c3cnn(C)c3)[C@@]1([H])CCN2c1cccc(C)n1", "Percent Effect": 20.72}
{"structure": "CC(NC(=O)NCc1cccnc1N(C)C)c1cccs1", "stereo": "stereo not drawn", "Percent Effect": -2.101}
{"structure": "CCN1CCCn2c(nc(CNC(=O)c3ccsc3)cc2=O)C1", "Percent Effect": -4.2}
{"structure": "CCCSCC(=O)N1C[C@@H](NC(C)=O)[C@H](c2ccc(OC)cc2)C1", "Percent Effect": 6.102}
{"structure": "CC(NC(=O)NC1CCN(Cc2ccccc2)CC1)c1nncn1C", "stereo": "stereo not drawn", "Percent Effect": -69.94}
{"structure": "[H][C@]12CN(Cc3cc(C)no3)CCN1C[C@H](c1ccccc1)[C@H]2C(=O)NC", "Percent Effect": -6.149}
{"structure": "C[C@@H]1CN(Cc2ccsc2)C[C@]12CCN(Cc1cccnc1)C2=O.O=C(O)C(F)(F)F.O=C(O)C(F)(F)F", "Percent Effect": -0.7377}
{"structure": "CCc1nc(NS(=O)(=O)c2cc(C)c(F)cc2Cl)no1", "Percent Effect": -28.49}
{"structure": "CN(Cc1cnc(N)nc1)C(=O)C1CCN(C(=O)C2CCCC2)CC1", "Percent Effect": 4.793}
{"structure": "[H][C@]12CN(c3ncc(C)cn3)C[C@@]1([H])S(=O)(=O)CC[C@@H]2C(=O)NC(C)C", "Percent Effect": -26.37}
{"structure": "CN(C)C(=O)CC1CC2(CCN(C(=O)N(C)C)CC2)Oc2ccccc21", "stereo": "stereo not drawn", "Percent Effect": 7.197}
{"structure": "Cc1noc(C2CCN(C(=O)C3CCCO3)CC2)n1", "stereo": "stereo not drawn", "Percent Effect": 33.16}
{"structure": "CCc1cc(C(=O)N2CCCC2c2nc(O)cc(CC)n2)on1", "stereo": "stereo not drawn", "Percent Effect": 7.594}
{"structure": "COCCN1CCC2(CC1)CCN(Cc1ccccn1)CC2.O=C(O)C(F)(F)F.O=C(O)C(F)(F)F", "Percent Effect": -13.73}
{"structure": "CN(C)S(=O)(=O)N1CCC2(COCc3cnc(NCC4CC4)nc32)C1", "stereo": "stereo not drawn", "Percent Effect": -56.91}

6 of the entries, repeated:

structure,Percent Effect
Cc1noc(C2CCN(C(=O)C3CCCO3)CC2)n1 (stereo not drawn),33.16
CC(NC(=O)NC1CCN(Cc2ccccc2)CC1)c1nncn1C (stereo not drawn),-69.94
CN(Cc1cnc(N)nc1)C(=O)C1CCN(C(=O)C2CCCC2)CC1,4.793
CCc1cc(C(=O)N2CCCC2c2nc(O)cc(CC)n2)on1 (stereo not drawn),7.594
CC(NC(=O)NCc1cccnc1N(C)C)c1cccs1 (stereo not drawn),-2.101
Cc1cccc(C(=O)Nc2ccc(OC3CCOCC3)c(C)c2)n1,6.348

Measurements from “University of Dundee, Small-Polar-MMV Screening Library” (2021), ChEMBL document CHEMBL3988442.